# Reference: patent US6558922B1, “Methods and compositions for production of floral scent compounds” (Purdue Research Foundation, priority 1999, dated 2003)
# Legend:
# [1] = test system: Maryland True Pink Snapdragon flowers; assay: Headspace collection and GC-MS of volatiles emitted from snapdragon flowers; design: species or system Antirrhinum majus; settings: 5-day-old flowers; for Relative Amount: of total volatile production
# [2] = test system: snapdragon petal tissue (upper and lower lobes); settings: Dudareva et al., 2000, cited from earlier work
SMILES,Volatile Production [1],Relative Amount [1],Concentration of free BA in petal tissue ([2]; 12 day after anthesis),Concentration of free BA in petal tissue ([2]; second day of anthesis)
C=CC(=C)CCC=C(C)C [Myrcene],7.7 ± 2.1 μg/flower/24 hr,8.1%,–,–
C=C/C(C)=C/CC=C(C)C [Trans-β-ocimene],26.0 ± 5.9 μg/flower/24 hr,27.4%,–,–
O=C(O)c1ccccc1 [benzoic acid],–,–,0.2 mM,2 mM

# Like-named read-outs stand apart in the source and are kept apart here.
